HELM strings list residues between dots; [ac] is acetyl, [am] amide, other brackets name non-standard units.

We go through 1 substance from article PMC4533939 (Breast Cancer Research : BCR, 2015).

Data set [1] in a line: general procedure: Fmoc solid-phase peptide synthesis; Rink amide MBHA. As to conditions: whole synthesis, scale of the general procedure 100 mg resin.
The nature of data set [2]: general procedure: Fmoc solid-phase peptide synthesis; Rink amide MBHA resin (loading 0.6 mmol/g). Particulars: whole synthesis.

In data set [1], “PEPTIDE1{[FITC5].[Ava].G.G.G.D.P.K.G.G.G.G.G.[am]}$$$$V2.0” displayed a crude yield of 47 % crude yield. This substance displayed an isolated mass in data set [2] of 30 mg. Also, the isolated yield in data set [2] (scale of the general procedure 100 mg resin) amounted to 42%.
